Measurements from PubChem BioAssay AID504444 (National Center for Advancing Translational Sciences (NCATS), 2011).
About 7,500 (2.1%) of roughly 360,000 compounds were called active. Inconclusive results, whose numbers are uncertain, are shown with a selection of clear calls. The call rests on the fitted dose curve; in most records, active means well fitted inhibition curve with a large enough effect; inconclusive means small, poorly fitted or top-dose-only effect, or effect the other way; inactive means flat fitted curve, though single readings scatter. A potency beside an inconclusive call is a rough fit, not a confirmed value.

test: Nrf2 qHTS screen for inhibitors; settings: A549 ARE-Fluc reporter, luciferase luminescence, 18-24 h; series mostly up to 46 µM; further: nearly all actives have a fitted effect of over 60% in size
Outline: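 Nrf2 function is reported as luminescence of an ARE-controlled luciferase in A549 cells. Compounds were tested at several concentrations, and a CellTiter-Fluor read on the same wells flagged cytotoxicity.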
Potency means the concentration at half of the fitted maximal effect.

Row | Compound | Potency
1 | CCC(CO)Oc1cc(NC(=O)c2cccc3ccccc23)c2ncn(C(C)C)c2c1 (configuration not stated) | inconclusive: 18.4 µM [falling, single point]
2 | CC(C)(C)c1ccc(OCC(=O)Nc2ccc3c4c(cccc24)C(=O)NC3=O)cc1 | inconclusive: 29.1 µM [falling, partial curve, poor fit]
3 | CSc1sc(-c2ccnc(=S)[nH]2)c(-c2ccccc2)c1C#N | inconclusive: 7.31 µM [activator, partial curve, poor fit]
4 | CN(C)C1C(=O)c2ccccc2C1=O | inactive
5 | Nc1ccc(C(=O)Nc2ccco2)cc1 | inconclusive: 25.9 µM [activator, partial curve, poor fit]
6 | O=c1oc(Nc2cccc(F)c2)nc2ccccc12 | inconclusive: 8.2 µM [activator, partial curve, poor fit]
7 | CC(=O)Nc1cccc(Oc2ncnc3scc(-c4ccc(C(C)C)cc4)c23)c1 | inconclusive: 3.26 µM [activator, single point]
8 | COC(=O)c1ccccc1NC(=O)C1CC(c2ccc(F)cc2)=NO1 (configuration not stated) | active: 4.11 µM
9 | O=c1c2ccccc2c(-c2n[nH]c(=S)o2)nn1Cc1ccccc1 | inconclusive: 10.3 µM [falling, partial curve, poor fit]
10 | CCOC(=O)COc1c(OC)cc(Cl)cc1C1Nc2ccccc2C(=O)N1c1ccccc1 (configuration not stated) | inconclusive: 29.1 µM [falling, single point]
11 | CCN(Cc1cnn(C)c1)C(=O)c1cc(COc2cc(C)c(Cl)c(C)c2)on1 | inconclusive: 6.51 µM [activator, single point]
12 | CC[n+]1ccccc1/C=C1\Sc2ccc(C)cc2N1C | active: 6.51 µM
13 | O=C(CN1CCCCC1)Nc1nc(-c2ccc(F)c(F)c2)cs1 | inconclusive: 2.91 µM [activator, partial curve]
14 | CC(=O)NC(CC(=O)Nc1nc(-c2ccc(N(C)S(C)(=O)=O)cc2)cs1)c1ccccc1 (configuration not stated) | active: 20.6 µM
15 | Cc1ccc(S(=O)(=O)N2CCOCC2)cc1NC(=O)COC(=O)c1ccccc1OCc1c(C)noc1C | inactive
16 | CN(CC(=O)NC(=O)NC1CCCCC1)CC(=O)Nc1ccc(OC(F)(F)F)cc1 | inconclusive: 29.1 µM [falling, single point]
17 | Cc1cccc(C)c1NC(=O)CN(C)C(=O)C1=COCCO1 | inactive
18 | COc1ccc(NC(=O)/C=C/c2cccc(C(F)(F)F)c2)cn1 | inconclusive: 29.1 µM [falling, single point]
19 | CCn1cc(C(=O)OCC(=O)N2C(C)CCCC2C)c(=O)c2ccc(C)nc21 (configuration not stated) | inactive
20 | Cc1ccc(-c2nc3cc(C)ccc3o2)cc1 | inconclusive: 0.92 µM [activator, full curve]
21 | CC(/C=C/c1ccc(N(C)C)cc1)=N\N=C(/N)SC1CC(=O)N(c2ccc(C(=O)O)cc2)C1=O (configuration not stated) | inconclusive: 9.2 µM [falling, partial curve, poor fit]
22 | O=C(Cc1cccc([N+](=O)[O-])c1)Nc1ccc(C(=O)N2CCCCC2)cc1 | inconclusive: 0.411 µM [falling, partial curve, poor fit]
23 | COc1cccc(CC(=NO)c2cccc(OC)c2)c1 | inactive

Rewritten in CSV form: entries from further up.
Row,Compound,Potency
5,Nc1ccc(C(=O)Nc2ccco2)cc1,"inconclusive: 25.9 µM [activator, partial curve, poor fit]"
6,O=c1oc(Nc2cccc(F)c2)nc2ccccc12,"inconclusive: 8.2 µM [activator, partial curve, poor fit]"
17,Cc1cccc(C)c1NC(=O)CN(C)C(=O)C1=COCCO1,inactive
21,CC(/C=C/c1ccc(N(C)C)cc1)=N\N=C(/N)SC1CC(=O)N(c2ccc(C(=O)O)cc2)C1=O (configuration not stated),"inconclusive: 9.2 µM [falling, partial curve, poor fit]"

Next entries

Row | Compound | Potency
24 | Cc1nc2ccccc2c2oc(C(=O)NCC3COc4ccccc4O3)cc12 (configuration not stated) | active: 16.4 µM
25 | CN(c1ccccc1)S(=O)(=O)c1ccc(C(=O)NCc2ccccc2F)cc1 | inconclusive: 29.1 µM [falling, partial curve, poor fit]
26 | Cc1nnc(SCC(=O)N/N=C/c2cn(-c3ccccc3)nc2-c2ccccc2)n1-c1ccccc1 | active: 16.4 µM
27 | CN(C)CCNc1c2c(c(C#N)c3nc4ccccc4n13)CCCC2 | inconclusive: 5.17 µM [activator, single point]
28 | O=C(NCc1ccc(Cl)s1)C1CCC(=O)N(CCc2cccc(F)c2)C1 (configuration not stated) | inactive
29 | O=C(NCC(=O)N1CCN(C(=O)c2ccco2)CC1)c1ccccc1 | inconclusive: 20.6 µM [activator, single point]
30 | NC(=O)c1ccccc1NC(=O)CN1c2ccccc2S(=O)(=O)c2ccccc21 | inconclusive: 20.6 µM [activator, single point]
31 | CC(=O)N1CCN(C(=O)CN2C(=O)NC(C)(c3ccc4ccccc4c3)C2=O)CC1 (configuration not stated) | inactive
32 | COc1ccc(N2CCN(C(=O)C3CCN(S(=O)(=O)c4ccc(F)cc4)CC3)CC2)cc1 | inconclusive: 29.1 µM [falling, partial curve, poor fit]
33 | COCCc1nn2c(=O)cc(COC(=O)c3ccccc3C)nc2s1 | inconclusive: 23.1 µM [activator, partial curve, poor fit]
34 | COc1cc(-c2nc(C(=O)NC3CCCCC3)cc3c2[nH]c2ccccc23)cc(OC)c1OC | active: 9.2 µM
35 | COc1ccccc1/C=C/C=N/NC(=O)c1cc(-c2ccc(C)o2)[nH]n1 | inconclusive: 25.9 µM [activator, single point]
36 | Clc1ccc(Oc2nc3ccccc3n3cccc23)cc1 | inconclusive: 5.8 µM [activator, single point]
37 | O=C(Nc1cc(-c2ccc(Cl)cc2)no1)c1ccc(F)cc1 | inactive
38 | COc1cc(NC(=O)C(OC(=O)CNC(=O)c2ccccc2)c2ccccc2)cc(C(F)(F)F)c1 (configuration not stated) | inactive
39 | CCc1ccc(OCC(=O)Nc2ccc3c(c2)OCCO3)cc1 | inconclusive: 13 µM [activator, partial curve, poor fit]
40 | COc1cc(C(=O)Nc2nc(-c3ccc(F)cc3)cs2)ccc1OCC(=O)N1CCOCC1 | active: 20.6 µM
41 | Nn1c(SCc2ccc(C(=O)O)cc2)nnc1-c1ccc(Cl)cc1Cl | inactive
42 | CCOC(=O)c1[nH]c2c(c1Cc1ccccc1OC)C(=O)CC(c1ccccc1)C2 (configuration not stated) | inconclusive: 1.16 µM [activator, full curve]
43 | CC(=O)N1CC2(c3ccccc3)CN(C(C)=O)CC(c3ccccc3)(C1)C2=O | inconclusive: 3.66 µM [falling, single point]
44 | Cc1cccc(OCC(=O)Nc2sc3c(c2C#N)CCC3)c1 | inconclusive: 29.1 µM [activator, single point]
45 | Cc1ccc(NC(=O)C2CCN(C(=O)OC(C)(C)C)CC2)cc1S(=O)(=O)N1CCCCC1 | inconclusive: 29.1 µM [falling, single point]
46 | O=[N+]([O-])c1cccc(/C=C/C=N/Nc2nc(N3CCCCC3)nc(N3CCCCC3)n2)c1 | inconclusive: 32.6 µM [falling, single point]

Row | Compound | Potency
47 | COCCNC(=O)CSc1nc2c(n1-c1ccccc1)CCCC2 | inconclusive: 0.231 µM [falling, full curve, poor fit]
48 | Cc1nnc(Oc2ccccc2F)c2ccccc12 | inconclusive: 14.6 µM [activator, partial curve, poor fit]
49 | O=C(NNC(=S)Nc1ccccc1Cl)c1ccccc1Cl | inconclusive: 7.31 µM [activator, partial curve]
50 | O=C1NC[C@H](c2ccccc2)N(CCc2cc(C(F)(F)F)cc(C(F)(F)F)c2)C1=O | inconclusive: 10.3 µM [falling, partial curve, poor fit]
51 | O=C(CCNS(=O)(=O)c1ccc(Br)cc1)N1CCN(c2ccccc2O)CC1 | inconclusive: 29.1 µM [falling, single point]
52 | CCc1ccc(NC(=O)CSc2nc3c(c(=O)[nH]2)CN(Cc2ccc(C)cc2)CC3)cc1 | inconclusive: 16.4 µM [activator, partial curve, poor fit]
53 | CNC(=S)NN=C(C)CCCC(C)=NNC(=S)NC | inactive
54 | Cc1ccccc1CNC(=O)C1CCN(c2nnc(N3CCCC3=O)s2)CC1 | inconclusive: 6.51 µM [falling, single point]
55 | CCOC(=O)N1CCC(NS(=O)(=O)c2ccc(NC(C)=O)c(Cl)c2)CC1 | active: 11.6 µM
56 | O=C1c2cccc3cccc(c23)C(=O)N1c1ccncc1 | inconclusive: 13 µM [falling, partial curve]
57 | COc1cc(Cl)c(C)cc1NC(=O)Cn1c2ncccc2c(=O)n1-c1ccccc1 | inconclusive: 16.4 µM [activator, single point]
58 | CCOc1ccc(C(C(=O)NCCC(C)C)N(CCO)C(=O)c2snc(C(N)=O)c2N)cc1 (configuration not stated) | inconclusive: 14.6 µM [falling, single point]
59 | O=C(Nc1ccc(Cl)cc1)Nc1ccc2c(c1)OCO2 | inconclusive: 9.2 µM [activator, partial curve]
60 | Oc1cc(-c2ccc(N3CCCCC3)nc2)cc2cccnc12 | inconclusive: 29.1 µM [falling, single point]
61 | O=C(c1cc(COc2ccc(F)cc2Cl)on1)N1CCC(OCc2cccnc2)CC1 | inactive
62 | CCc1ccc(NC(=O)C(=O)NCC(c2cccnc2)N2CCc3ccccc3C2)cc1 (configuration not stated) | inconclusive: 9.2 µM [activator, partial curve]
63 | CN(C)c1ccc(C=NN2CCCCCC2)cc1 | inconclusive: 8.2 µM [activator, partial curve]
64 | CCOc1cc(CN2CCN(Cc3ccc(C)o3)C(CCO)C2)ccc1OC (configuration not stated) | inconclusive: 14.6 µM [falling, partial curve, poor fit]
65 | C=CCn1c(=O)c(C(=O)NCc2ccc(Cl)cc2)c(O)c2ccccc21 | inconclusive: 29.1 µM [falling, single point]
66 | COc1nnc(-c2ccc(N3CCCCC3)c(NC(=O)c3ccccc3Cl)c2)c2ccccc12 | active: 6.51 µM
67 | COc1ccc(C(=O)N=c2sc3c(C)ccc(OC)c3n2C)cc1 | inconclusive: 2.31 µM [activator, partial curve]

As entered above:
Under Potency, COCCNC(=O)CSc1nc2c(n1-c1ccccc1)CCCC2 is entered as inconclusive: 0.231 µM [falling, full curve, poor fit]
Under Potency, CCOC(=O)N1CCC(NS(=O)(=O)c2ccc(NC(C)=O)c(Cl)c2)CC1 is entered as active: 11.6 µM
